Assay results published in publication PMC12796447, “Cran1, member of a new class of OLD family ATPases, functions in cell cycle progression in an archaeon” (EMBO Reports, 2025).

Test system: aCcr1 (Saccharolobus islandicus REY15A)
Experiment: EMSA
Conditions: 0, 0.5 and 1 uM aCcr1, 2 nM probe (legend, Methods say 10 nM), 5 mM Mg2+; 50 mM Tris-HCl pH 7.4, 5 mM MgCl2, 20 mM NaCl, 50 ug/mL BSA, 1 mM DTT, 5% glycerol, 37 C 30 min; native PAGE (12% in Methods, 10% in legend), 0.5x TBE; recombinant protein; label: 5'-FAM on strand 1

AGATAATACTCCGTTTTTTCTCTAACAATAGATTAACGTTAAAGAAGCCTGCTAACGATTATATTTTATTCTGCTAAGTATTACCGTAGAGTGATCTGTA (double strand) [Pcran1 (cran1 promoter, 100 nt)]
binding result: binds

Construct, isoform or probe ends are uncertain for at least one entry.
